{"source": "PubChem BioAssay AID485314", "about": "(National Center for Advancing Translational Sciences (NCATS), 2010)", "note": "The whole screen tested about 340,000 compounds, of which about 4,500 (1.3%) were called active. Inconclusive results, whose numbers are uncertain, are shown with a selection of clear calls. Calls follow the shape of the dose curve; as a rule, active = well fitted inhibition curve with a large enough effect; inconclusive = small, poorly fitted or top-dose-only effect, or another doubt; inactive = no such curve, though single readings can be large or run the other way. Potencies of inconclusive entries are doubtful fits and often do not repeat. % is scaled to controls: 0 for no effect and ±100 for the full control effect; potency is read from the fitted curve at half-maximal effect.", "data": [{"target": "DNA polymerase beta (Homo sapiens) (UniProt P06746)", "assay": "qHTS Assay for Inhibitors of DNA Polymerase Beta", "details": "Pol beta primer extension/strand displacement, fluorescence kinetic; activity change, negative = inhibition: at 114 µM (top of the series)", "outline": "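Reaction started by 50 nM substrate onto compound-treated Pol beta (10 nM, 15 min preincubation, room temperature); plates read at 0 min and 10 min. Normalized concentration-effect data fitted by four-parameter Hill equation.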", "values": [{"molecule": "O=C(CCS(=O)(=O)c1ccc(Br)cc1)N1CCN(c2ccc(F)cc2)CC1", "activity change, negative = inhibition": "inconclusive: -72.1% [inhibitor]"}, {"molecule": "COc1ccc(NC(=O)c2ccc(N3C(=O)C4CC=C(Cl)CC4C3=O)cc2)cc1", "note": "(stereo unspecified)", "Potency": "inconclusive: 3.55 µM [inhibitor, full curve]"}, {"molecule": "Cc1ccc2[nH]c(=O)c(CN(Cc3ccc4c(c3)OCO4)Cc3nnnn3Cc3ccco3)cc2c1", "activity change, negative = inhibition": "inactive: -4.16%"}, {"molecule": "CCOc1cc(CNC(=O)C2COc3ccccc3C2)cc(OCC)c1OCC", "note": "(stereo unspecified)", "activity change, negative = inhibition": "inactive: 11.8%"}, {"molecule": "Cc1ccc(CCNC(=O)CS(=O)Cc2nc(-c3cccc(C)c3)oc2C)cc1", "note": "(stereo unspecified)", "Potency": "inconclusive: 39.8 µM [inhibitor, single point]"}, {"molecule": "O=C(O)CCNc1ccc(Cl)cc1", "Potency": "inconclusive: 20 µM [inhibitor, full curve, poor fit]"}, {"molecule": "NC(=O)CSc1ccc(-c2ccc(F)cc2)nn1", "activity change, negative = inhibition": "inactive: 9.93%"}, {"molecule": "CC(=O)O[C@H]1C[C@@H]2CCC3C(CC[C@@]4(C)[C@H]3C[C@H]([N+]3(C)CCCCC3)[C@@H]4OC(C)=O)[C@@]2(C)C[C@@H]1[N+]1(C)CCCCC1", "note": "(stereo partly specified)", "activity change, negative = inhibition": "inactive: 16.5% [at 57.1 µM]"}, {"molecule": "CCc1nn(CC(=O)NCCc2ccc(OC)cc2OC)c(=O)c2cc3c(OC)cccc3n12", "activity change, negative = inhibition": "inactive: 0.218%"}, {"molecule": "O=[N+]([O-])c1cccc(N/N=C/c2cc([N+](=O)[O-])ccc2O)c1", "Potency": "inconclusive: 89.1 µM [inhibitor, single point]"}, {"molecule": "O=C(Cn1cc(S(=O)(=O)Cc2ccccc2)c2ccccc21)Nc1ccccc1", "Potency": "inconclusive: 20 µM [inhibitor, single point]"}, {"molecule": "O=C1CSC(=Nc2ccc(Cl)cc2)N1Cc1ccco1", "activity change, negative = inhibition": "inactive: -20.1%"}, {"molecule": "CCOC(=O)C(Sc1nnc(-c2ccncc2)o1)C(C)=O", "note": "(stereo unspecified)", "Potency": "inconclusive: 100 µM [inhibitor, single point]"}, {"molecule": "O=C(O)c1ccc(COCC(F)(F)C(F)F)o1", "Potency": "active: 28.2 µM"}, {"molecule": "CCOc1cc(C(=O)Nc2ccc(N3CCOCC3)cc2)cc(Br)c1OC", "Potency": "inconclusive: 89.1 µM [inhibitor, single point]"}, {"molecule": "CCOc1ccccc1NC(=O)Cn1cc(C(=O)c2cccc(OC)c2)c(=O)c2ccc(C)nc21", "activity change, negative = inhibition": "inactive: 1.7%"}, {"molecule": "O=C(COC(=O)C1CC1)Nc1ccccc1Sc1ccccc1", "Potency": "inconclusive: 25.1 µM [inhibitor, single point]"}, {"molecule": "CCOc1cc(CNc2ccc(O)cc2)ccc1OCc1ccc(Cl)cc1Cl", "Potency": "inconclusive: 79.4 µM [inhibitor, partial curve]"}, {"molecule": "Cc1ccccc1CN(c1ccc(C(=O)N/N=C/c2ccc(OCC(N)=O)cc2)cc1)S(C)(=O)=O", "Potency": "inconclusive: 8.91 µM [inhibitor, full curve, poor fit]"}, {"molecule": "COc1ccc(OC)c2sc(N3CCN(C(=O)C(C)(C)C)CC3)nc12", "activity change, negative = inhibition": "inactive: -13.2%"}, {"molecule": "Cc1c(N(C)C(=O)c2ccccc2F)c(=O)n(-c2ccccc2)n1C", "Potency": "inconclusive: 89.1 µM [inhibitor, single point]"}, {"molecule": "Cc1cccc(C(=O)N[C@H](C(=O)Nc2nc(C)cs2)C(C)C)c1", "activity change, negative = inhibition": "inactive: -16.2%"}, {"molecule": "O=C(NCCc1ccccc1Cl)c1ccc(Cn2c(=O)c3cccn3c3cccnc32)cc1", "Potency": "active: 14.1 µM"}, {"molecule": "CN(C)/C=C/C(=O)c1ccc(OCCN(C)c2ccccn2)cc1", "activity change, negative = inhibition": "inactive: -0.93%"}, {"molecule": "CCc1ccc(C(=O)c2cn(CC(=O)Nc3ccc4c(c3)OCO4)c3cc(OC)c(OC)cc3c2=O)cc1", "Potency": "active: 6.31 µM"}, {"molecule": "COc1ccc(NC2CCCN(C(=O)CCN3CCOCC3)C2)cc1", "note": "(stereo unspecified)", "activity change, negative = inhibition": "inactive: 3.73%"}, {"molecule": "CCC1CN(C(=O)N2CCC(C(=O)NCCN(CC)CC)CC2)c2cc(C)ccc2O1", "note": "(stereo unspecified)", "activity change, negative = inhibition": "inactive: 0.975%"}, {"molecule": "COc1ccccc1CNC(=O)C1CCC(CNS(=O)(=O)c2ccc3c(c2)CCCC(=O)N3)CC1", "note": "(stereo unspecified)", "Potency": "inconclusive: 63.1 µM [inhibitor, single point]"}, {"molecule": "COCCCNC(=O)c1ccc(NC(=O)c2nsc3ccccc23)cc1", "activity change, negative = inhibition": "inactive: -0.898%"}, {"molecule": "O=S(=O)(Nc1c(S(=O)(=O)c2ccccc2)c2nc3ccccc3nc2n1C1CCCCC1)c1ccccc1", "activity change, negative = inhibition": "inactive: 3.41%"}, {"molecule": "CN1C=C/C(=C\\c2cc[n+](C)c3ccccc23)c2ccccc21", "Potency": "inconclusive: 15.8 µM [inhibitor, single point]"}, {"molecule": "Oc1c(C=Nc2cccc3cccnc23)sc2ccccc12", "Potency": "inconclusive: 35.5 µM [inhibitor, full curve]"}, {"molecule": "CC(C)Oc1ccc(CNC(=O)CCCN2C(=O)c3cccnc3Oc3ccc(Cl)cc32)cc1", "activity change, negative = inhibition": "inactive: -12.8%"}, {"molecule": "CC1CCN(c2oc(-c3ccco3)nc2S(=O)(=O)c2ccccc2)CC1", "Potency": "inconclusive: 0.141 µM [inhibitor, full curve, poor fit]"}, {"molecule": "CCC(=O)N1CCc2cc(Br)cc(S(=O)(=O)Nc3ccc(C)cc3C)c21", "Potency": "inconclusive: 15.8 µM [inhibitor, full curve, poor fit]"}, {"molecule": "CCCCn1c2ccccc2c2nnc(SCC(=O)NC3=NN=C(c4ccccc4)CS3)nc21", "Potency": "inconclusive: 15.8 µM [inhibitor, partial curve]"}, {"molecule": "Cc1ccc(S(=O)(=O)Nc2ccc3c(c2)CCCN3C(=O)c2cccs2)cc1", "activity change, negative = inhibition": "inactive: -2.51%"}, {"molecule": "NC(=O)c1c(NC(=O)C2CCCO2)sc2c1CCCC2", "note": "(stereo unspecified)", "activity change, negative = inhibition": "inactive: 0.314%"}, {"molecule": "O=C(CNC(=O)c1cccc(F)c1)N/N=C/c1cc(Br)ccc1OC(=O)/C=C/c1ccco1", "Potency": "active: 35.5 µM"}, {"molecule": "C=C(C(=O)O)C1CCC2(C)CCCC(C)(O)C2C1", "note": "(stereo unspecified)", "Potency": "inconclusive: 50.1 µM [inhibitor, partial curve, poor fit]"}, {"molecule": "Cc1cc(C)cc(OCC(=O)N(Cc2cccs2)C2CCS(=O)(=O)C2)c1", "note": "(stereo unspecified)", "Potency": "inconclusive: 0.1 µM [inhibitor, full curve, poor fit]"}, {"molecule": "O=C(NCc1cccnc1)/C(=C/c1ccc(-c2cccc(C(F)(F)F)c2)o1)NC(=O)c1ccccc1", "Potency": "inconclusive: 39.8 µM [inhibitor, single point]"}, {"molecule": "CN1OC2C(=O)N(c3ccccc3)C(=O)C2C1c1ccc(F)cc1", "note": "(stereo unspecified)", "activity change, negative = inhibition": "inactive: 72.9%"}, {"molecule": "CCCCOC(=O)n1c(SCC(=O)N(CC)CC)nc2ccccc21", "Potency": "inconclusive: 39.8 µM [inhibitor, single point]"}, {"molecule": "CCOC(=O)CNC(=O)Nc1nnc(-c2ccc(OCC)cc2)o1", "Potency": "active: 79.4 µM"}, {"molecule": "Cc1ccc(S(=O)(=O)Nc2ccccc2-c2ccccc2NS(=O)(=O)c2ccc(C)cc2)cc1", "Potency": "inconclusive: 79.4 µM [inhibitor, partial curve]"}]}]}
